Source: the supplement of paper PMC3353916

Test system: Sindbis virus TE/5'2J-GFP
Assay: percent infected (GFP+ in RFP+ ISG-expressing cells); higher = more infection (less antiviral activity)
Conditions: experiment: primary screen (single well)

Substance | percent infected (BHK/HA-Zeo (control)) | percent infected (BHK/NZAP-Zeo (ZAP))
ABTB2 | 96.8% | 83.2%
AHNAK2 | 98.6% | 97.8%
APOBEC3A | 98.7% | 98.3%
ARNTL | 96.8% | 86.5%
BTN3A3 | 95.2% | 74.3%
C9orf91 | 98.9% | 97.6%
CCL8 | 96.3% | 93.5%
CHMP5 | 98.5% | 98.4%
CSDA | 93.8% | 89.3%
EPAS1 | 98.1% | 92.9%
GALNT2 | 99% | 98.9%
ISG20 | 99.1% | 98.5%
KIAA1618 | 97.5% | 91.2%
MAACRYCCSCLRLRPLSDGPFLLPRRDRALTQLQVRALWSSAGSRAVAVDLGNRKLEISSGKLARFADGSAVVQSGDTAVMVTAVSKTKPSPSQFMPLVVDYRQKAAAAGRIPTNYLRREIGTSDKEILTSRIIDRSIRPLFPAGYFYDTQVLCNLLAVDGVNEPDVLAINGASVALSLSDIPWNGPVGAVRIGIIDGEYVVNPTRKEMSSSTLNLVVAGAPKSQIVMLEASAENILQQDFCHAIKVGVKYTQQIIQGIQQLVKETGVTKRTPQKLFTPSPEIVKYTHKLAMERLYAVFTDYEHDKVSRDEAVNKIRLDTEEQLKEKFPEADPYEIIESFNVVAKEVFRSIVLNEYKRCDGRDLTSLRNVSCEVDMFKTLHGSALFQRGQTQVLCTVTFDSLESGIKSDQVITAINGIKDKNFMLHYEFPPYATNEIGKVTGLNRRELGHGALAEKALYPVIPRDFPFTIRVTSEVLESNGSSSMASACGGSLALMDSGVPISSAVAGVAIGLVTKTDPEKGEIEDYRLLTDILGIEDYNGDMDFKIAGTNKGITALQADIKLPGIPIKIVMEAIQQASVAKKEILQIMNKTISKPRASRKENGPVVETVQVPLSKRAKFVGPGGYNLKKLQAETGVTISQVDEETFSVFAPTPSAMHEARDFITEICKDDQEQQLEFGAVYTATITEIRDTGVMVKLYPNMTAVLLHNTQLDQRKIKHPTALGLEVGQEIQVKYFGRDPADGRMRLSRKVLQSPATTVVRTLNDRSSIVMGEPISQSSSNSQ [PNPT1] | 97.7% | 94.7%
MAADTPGKPSASPMAGAPASASRTPDKPRSAAEHRKSSKPVMEKRRRARINESLAQLKTLILDALRKESSRHSKLEKADILEMTVRHLRSLRRVQVTAALSADPAVLGKYRAGFHECLAEVNRFLAGCEGVPADVRSRLLGHLAACLRQLGPSRRPASLSPAAPAEAPAPEVYAGRPLLPSLGGPFPLLAPPLLPGLTRALPAAPRAGPQGPGGPWRPWLR [HES4] | 98.2% | 96.6%
MAALMTPGTGAPPAPGDFSGEGSQGLPDPSPEPKQLPELIRMKRDGGRLSEADIRGFVAAVVNGSAQGAQIGAMLMAIRLRGMDLEETSVLTQALAQSGQQLEWPEAWRQQLVDKHSTGGVGDKVSLVLAPALAACGCKVPMISGRGLGHTGGTLDKLESIPGFNVIQSPEQMQVLLDQAGCCIVGQSEQLVPADGILYAARDVTATVDSLPLITASILSKKLVEGLSALVVDVKFGGAAVFPNQEQARELAKTLVGVGASLGLRVAAALTAMDKPLGRCVGHALEVEEALLCMDGAGPPDLRDLVTTLGGALLWLSGHAGTQAQGAARVAAALDDGSALGRFERMLAAQGVDPGLARALCSGSPAERRQLLPRAREQEELLAPADGTVELVRALPLALVLHELGAGRSRAGEPLRLGVGAELLVDVGQRLRRGTPWLRVHRDGPALSGPQSRALQEALVLSDRAPFAAPSPFAELVLPPQQ [TYMP] | 94.1% | 89%
MAAPGPALCLFDVDGTLTAPRQKITKEMDDFLQKLRQKIKIGVVGGSDFEKVQEQLGNDVVEKYDYVFPENGLVAYKDGKLLCRQNIQSHLGEALIQDLINYCLSYIAKIKLPKKRGTFIEFRNGMLNVSPIGRSCSQEERIEFYELDKKENIRQKFVADLRKEFAGKGLTFSIGGQISFDVFPDGWDKRYCLRHVENDGYKTIYFFGDKTMPGGNDHEIFTDPRTMGYSVTAPEDTRRICELLFS [PMM2] | 94% | 86.5%
MAAQQRDCGGAAQLAGPAAEADPLGRFTCPVCLEVYEKPVQVPCGHVFCSACLQECLKPKKPVCGVCRSALAPGVRAVELERQIESTETSCHGCRKNFFLSKIRSHVATCSKYQNYIMEGVKATIKDASLQPRNVPNRYTFPCPYCPEKNFDQEGLVEHCKLFHSTDTKSVVCPICASMPWGDPNYRSANFREHIQRRHRFSYDTFVDYDVDEEDMMNQVLQRSIIDQ [ZNF313] | 96.6% | 92.7%
MAASKKAVLGPLVGAVDQGTSSTRFLVFNSKTAELLSHHQVEIKQEFPREGWVEQDPKEILHSVYECIEKTCEKLGQLNIDISNIKAIGVSNQRETTVVWDKITGEPLYNAVVWLDLRTQSTVESLSKRIPGNNNFVKSKTGLPLSTYFSAVKLRWLLDNVRKVQKAVEEKRALFGTIDSWLIWSLTGGVNGGVHCTDVTNASRTMLFNIHSLEWDKQLCEFFGIPMEILPNVRSSSEIYGLMKISHSVKAGALEGVPISGCLGDQSAALVGQMCFQIGQAKNTYGTGCFLLCNTGHKCVFSDHGLLTTVAYKLGRDKPVYYALEGSVAIAGAVIRWLRDNLGIIKTSEEIEKLAKEVGTSYGCYFVPAFSGLYAPYWEPSARGIICGLTQFTNKCHIAFAALEAVCFQTREILDAMNRDCGIPLSHLQVDGGMTSNKILMQLQADILYIPVVKPSMPETTALGAAMAAGAAEGVGVWSLEPEDLSAVTMERFEPQINAEESEIRYSTWKKAVMKSMGWVTTQSPESGDPSIFCSLPLGFFIVSSMVMLIGARYISGIP [GK] | 93.6% | –
MAATEISVLSEQFTKIKELELMPEKGLKEEEKDGVCREKDHRSPSELEAERTSGAFQDSVLEEEVELVLAPSEESEKYILTLQTVHFTSEAVELQDMSLLSIQQQEGVQVVVQQPGPGLLWLEEGPRQSLQQCVAISIQQELYSPQEMEVLQFHALEENVMVASEDSKLAVSLAETTGLIKLEEEQEKNQLLAERTKEQLFFVETMSGDERSDEIVLTVSNSNVEEQEDQPTAGQADAEKAKSTKNQRKTKGAKGTFHCDVCMFTSSRMSSFNRHMKTHTSEKPHLCHLCLKTFRTVTLLRNHVNTHTGTRPYKCNDCNMAFVTSGELVRHRRYKHTHEKPFKCSMCKYASVEASKLKRHVRSHTGERPFQCCQCSYASRDTYKLKRHMRTHSGEKPYECHICHTRFTQSGTMKIHILQKHGENVPKYQCPHCATIIARKSDLRVHMRNLHAYSAAELKCRYCSAVFHERYALIQHQKTHKNEKRFKCKHCSYACKQERHMTAHIRTHTGEKPFTCLSCNKCFRQKQLLNAHFRKYHDANFIPTVYKCSKCGKGFSRWINLHRHSEKCGSGEAKSAASGKGRRTRKRKQTILKEATKGQKEAAKGWKEAANGDEAAAEEASTTKGEQFPGEMFPVACRETTARVKEEVDEGVTCEMLLNTMDK [CTCFL] | – | 82.3%
MADDQGCIEEQGVEDSANEDSVDAKPDRSSFVPSLFSKKKKNVTMRSIKTTRDRVPTYQYNMNFEKLGKCIIINNKNFDKVTGMGVRNGTDKDAEALFKCFRSLGFDVIVYNDCSCAKMQDLLKKASEEDHTNAACFACILLSHGEENVIYGKDGVTPIKDLTAHFRGDRCKTLLEKPKLFFIQACRGTELDDGIQADSGPINDTDANPRYKIPVEADFLFAYSTVPGYYSWRSPGRGSWFVQALCSILEEHGKDLEIMQILTRVNDRVARHFESQSDDPHFHEKKQIPCVVSMLTKELYFSQ [CASP7] | 98.3% | 97.3%

This is a noisy data set.
